## Primary screen of a compound library

The values are deposited in ChEMBL (CHEMBL3988442, “University of Dundee, Small-Polar-MMV Screening Library” (2021)).

Values are the deposited “Percent Effect”, in %. The controls that fix the scale are not given in the record; negative values are as filed. The compounds are a random part of those screened.

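Assay of Toxoplasma gondii numbers, read through their beta-galactosidase reporter with a colour substrate. Concentration: 50 µM. The record gives no direction; the compounds picked for IC50 retests had high values, so higher reads as fewer parasites. About 18,000 compounds were tested under these conditions; 0.94% (about 170) showed 50% or more at least once.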

Compound,Percent Effect
Cc1noc(C)c1C(=O)N1CCCN(C)CC1,9.548%
O=C(Cn1ccc(=O)[nH]c1=O)NCc1cccnc1,-12.88%
O=C1CC2(CCC2)CC(=O)N1,3.126%
CC(C)n1ncc(C(=O)N=c2cc[nH]n2C(C)C)c1N,15.73%
CS(=O)(=O)CC1(CNCc2ccsc2)CC1,-4.932%
CCCC(O)CNS(=O)(=O)c1cc(F)cc(F)c1 (stereo not drawn),-5.662%
Cn1cc(C#N)cc1C(=O)NCC1CNCCO1 (stereo not drawn),-2.016%
CC(C)CCn1ccc(NC(=O)N2CCC(O)C2)n1 (stereo not drawn),-4.885%
CN(C)C(=O)c1ccc(CSc2nncs2)cc1,0.6441%
O=C(c1cc(C2CC2)on1)N1CCC2(CCOCC2)C1,7.539%
CCn1ccnc1CN1CCN(CCNC(C)=O)CC1,9.614%
c1cnc(N2CCN(Cc3cscn3)CC2)nc1,-5.441%
Cc1ccc(NCc2ncc[nH]2)c(F)c1,-11.64%
O=C(CSc1ccc(F)cc1)N1CCC1,5.586%
CC(c1cccc(Br)c1)N1CCNC(=O)CC1 (stereo not drawn),-6.193%
COCC(O)CNc1c(C)c(C)nc2ccccc12 (stereo not drawn),-6.719%
CC(Cc1ccco1)NC(=O)Cn1ccc(=O)[nH]c1=O (stereo not drawn),-3.648%
COC(=O)CN1CCCN(C2CCCC2)CC1,4.38%
CC(C)CCC(=O)N1CCNCC1,-1.153%
O=C(c1ccccc1)N1CCC(NC2CCOCC2)C1 (stereo not drawn),14.51%
Cn1ccnc(Cl)c1=O,0.2921%
NCc1nnc(C2CCOC2)[nH]1 (stereo not drawn),-0.02898%
Cc1c[nH]c(C(C)NC(=O)CCCN2CCCC2)n1 (stereo not drawn),4.753%
COC(=O)c1ccc(CSc2nnc(N)[nH]2)cc1,-1.441%
NCCC1CCCN(C(=O)c2c(O)cccc2O)C1 (stereo not drawn),-9.872%
CSCC(CCO)NC(=O)c1cnn(C)c1C (stereo not drawn),7.512%
CC(C)(C)OC(=O)NCC1CCC(=O)N1 (stereo not drawn),6.949%
Clc1cc2c(c(CN3CCNCC3)c1)OCC2,6.83%
CCCNC(=O)CN1CCC(c2nc(C)no2)CC1,1.433%
CN(C)C(=O)Cc1ccc(-c2ccccc2CO)cc1,-2.514%
CN(C)c1nc(N)nc(CN2CCSCC2)n1,18.28%
CN(CCc1ccncc1)Cc1ccc(N(C)C)nc1,-6.057%
CCc1noc(C2(O)CCNC2)n1 (stereo not drawn),1.133%
O=C(Nc1cn[nH]c1)C1CCNC1 (stereo not drawn),-3.68%
CN(C)S(=O)(=O)N1CCC(C(=O)N2CCCCC2)CC1,3.9%
O=C(NCC(O)c1cccs1)NC1CCOCC1 (stereo not drawn),-7.213%
CSCC(CCO)Nc1cc(C#N)c2ccccc2n1 (stereo not drawn),-8.557%
NC1CCNC2(CCC2)C1 (stereo not drawn),6.113%
CS(=O)(=O)CC1CCCN(c2nnc(C3CC3)o2)C1 (stereo not drawn),2.139%
O=C(Cn1nc2c(cc1=O)CCCC2)N1CCOCC1,20.13%
CC(C)c1ccc(-c2nnn(CC(=O)N(C)C)n2)cc1,-4.181%
COCC(C)(C)NC(=O)C(C)NC(=O)OC(C)(C)C (stereo not drawn),-18.69%
Cc1nnnn1CC(=O)NCc1ccco1,0.08587%
Cc1ccc(NC(=O)CCSCC(N)=O)c(C)c1,-4.808%
NCC(O)c1ccc(F)c(F)c1 (stereo not drawn),2.323%
NC1CCCN(c2ccccc2)C1 (stereo not drawn),-1.524%
Cc1c[nH]c(C(C)NC(=O)c2ccc3[nH]nnc3c2)n1 (stereo not drawn),-11.31%

Some entries from above, unchanged:

| Compound | Percent Effect |
|---|---|
| `c1cnc(N2CCN(Cc3cscn3)CC2)nc1` | -5.441% |
| `O=C(NCC(O)c1cccs1)NC1CCOCC1` (stereo not drawn) | -7.213% |
| `CCCC(O)CNS(=O)(=O)c1cc(F)cc(F)c1` (stereo not drawn) | -5.662% |
| `CC(c1cccc(Br)c1)N1CCNC(=O)CC1` (stereo not drawn) | -6.193% |